# Melanoma cell counts after drug treatment

Drugs:
vorinostat, 0.08 µM: O=C(CCCCCCC(=O)Nc1ccccc1)NO
STA-4783, 0.006 µM: CN(NC(=O)CC(=O)NN(C)C(=S)c1ccccc1)C(=S)c1ccccc1
PF-04217903, 1 µM: OCCn1cc(-c2cnc3nnn(Cc4ccc5ncccc5c4)c3n2)cn1
darinaparsin, 0.4 µM: C[As](C)SC[C@H](NC(=O)CC[C@H](N)C(=O)O)C(=O)NCC(=O)O
CP-690550, 1 µM: C[C@@H]1CCN(C(=O)CC#N)C[C@@H]1N(C)c1ncnc2[nH]ccc12
SNS-314, 0.0008 µM: O=C(Nc1cccc(Cl)c1)Nc1ncc(CCNc2ncnc3ccsc23)s1
enzastaurin, 0.8 µM: Cn1cc(C2=C(c3cn(C4CCN(Cc5ccccn5)CC4)c4ccccc34)C(=O)NC2=O)c2ccccc21
RKI-983, 0.4 µM: C[C@@H](N)c1ccc(C(=O)Nc2ccnc3[nH]ccc23)cc1

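The test systems are human melanoma cell lines, treated with two drugs together for 72 h and then stained and imaged. Each value is the count of nuclei relative to DMSO-treated wells, in %, so that 100 equals the control. Concentrations were fixed for each drug; these are the lower of two levels, a fifth of the higher. No replicate spread is given; individual values may be noisy.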 An unselected part of the screen is shown.

Pair,A101D,C32,A2058,A375
vorinostat and enzastaurin,92.1,109,99.6,95.6
STA-4783 and enzastaurin,85.3,109,65.9,20.5
RKI-983 and PF-04217903,80.3,87.1,86.1,95.4
SNS-314 and PF-04217903,119,87.6,111,106
vorinostat and darinaparsin,107,109,108,102
vorinostat and RKI-983,99.0,97.7,76.6,88.6
darinaparsin and SNS-314,103,75.0,92.6,87.8
STA-4783 and CP-690550,76.9,73.5,84.2,29.3
enzastaurin and SNS-314,83.5,90.8,98.5,88.4
darinaparsin and CP-690550,109,73.8,89.1,104
PF-04217903 and CP-690550,95.8,98.9,102,115
enzastaurin and CP-690550,103,121,103,89.6
vorinostat and PF-04217903,94.3,92.8,109,118
CP-690550 and RKI-983,95.7,91.6,90.2,88.4
PF-04217903 and darinaparsin,107,95.3,98.6,79.3
STA-4783 and vorinostat,78.2,67.1,53.7,13.9
SNS-314 and RKI-983,83.6,68.2,88.9,95.2
STA-4783 and darinaparsin,67.8,54.8,70.6,24.5
STA-4783 and RKI-983,57.6,47.4,40.4,14.3

Values as published with doi:10.1371/journal.pone.0140310, rounded.